Measured values taken from the supplement of paper PMC3334620.
In all, about 33,000 sequences were measured (“E-score (-0.5 to 0.5)”: median about -0.016, highest 2% from about 0.3 on). This is one part of the list.

The sequences below were run against T1, Yer184c (UniProt P39961) (assay: PBM E-score (8-mer binding enrichment) (E-score (-0.5 to 0.5)); higher = stronger / more preferred TF binding). Settings: protein concentration: 100 nM; construct: GST-full length.
T1 sequence: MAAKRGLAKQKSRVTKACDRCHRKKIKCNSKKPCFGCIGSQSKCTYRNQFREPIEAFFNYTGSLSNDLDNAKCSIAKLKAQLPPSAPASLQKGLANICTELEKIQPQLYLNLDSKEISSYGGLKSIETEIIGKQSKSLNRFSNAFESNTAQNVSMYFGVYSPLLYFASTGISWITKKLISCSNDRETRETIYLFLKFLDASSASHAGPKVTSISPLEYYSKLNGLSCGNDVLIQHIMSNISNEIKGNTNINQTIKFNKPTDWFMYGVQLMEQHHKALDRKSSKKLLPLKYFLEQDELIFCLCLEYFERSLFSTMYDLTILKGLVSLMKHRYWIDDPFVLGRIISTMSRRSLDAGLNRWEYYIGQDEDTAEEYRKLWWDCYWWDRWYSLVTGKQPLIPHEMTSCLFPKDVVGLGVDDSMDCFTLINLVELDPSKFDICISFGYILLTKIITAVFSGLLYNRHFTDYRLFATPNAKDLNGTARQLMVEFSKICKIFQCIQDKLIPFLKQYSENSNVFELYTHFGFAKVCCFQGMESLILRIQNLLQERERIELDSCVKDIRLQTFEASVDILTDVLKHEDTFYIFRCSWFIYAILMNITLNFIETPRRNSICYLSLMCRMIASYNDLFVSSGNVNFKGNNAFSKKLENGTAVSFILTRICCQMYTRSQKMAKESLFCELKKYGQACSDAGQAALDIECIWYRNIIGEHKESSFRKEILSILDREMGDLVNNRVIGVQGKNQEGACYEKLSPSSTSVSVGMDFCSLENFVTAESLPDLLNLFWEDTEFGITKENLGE
Protocol: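 Universal 'all 10-mer' protein binding microarrays (Agilent AMADID 015681) probed with GST-tagged S. cerevisiae TFs (full-length or DBD) made by in vitro transcription/translation (PURExpress), about 100-200 nM. Bound TF was detected with fluorescent anti-GST. Each ungapped 8-mer (which stands for itself and its reverse complement) is scored by the PBM enrichment score (E-score), a modified Wilcoxon-Mann-Whitney statistic from -0.5 to +0.5, computed with the Universal PBM Analysis Suite. Scale: above 0.35 generally sequence-specific binding.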

Row | Sequence | PBM E-score
1 | AAGAGGTG | -0.0611
2 | ACTCTAAA | 0.0975
3 | CTGAAGTC | -0.0867
4 | GCTTGCCA | -0.00303
5 | AGCGCGCT | -0.0737
6 | TCGGCGAA | 0.294
7 | AGGTATTA | 0.0804
8 | ACTACTAG | 0.0102
9 | AGCCTAAT | -0.0799
10 | AATATTAA | 0.311
11 | AACAACGC | 0.0496
12 | CGGTCCAG | -0.0513
13 | ATATATGA | 0.131
14 | ACGCTAGG | -0.287
15 | CTTTCGTA | 0.0787
16 | GACGTACC | -0.111
17 | GCCAGGCA | 0.0313
18 | CACCCTTA | -0.147
19 | ACGTCAAA | -0.07
20 | GTATGATA | 0.226
21 | GAAACTTC | 0.0503
22 | CGGGTACC | -0.129
23 | ATCCGTCC | -0.0635
24 | ATTTCCAC | 0.067
25 | AGCTCTTG | -0.18

Row | Sequence | PBM E-score
26 | ATTAAAGG | 0.176
27 | AGTGCTGA | -0.285
28 | ACGGCGGC | 0.00561
29 | CCCTTACC | -0.158
30 | ACGAACCG | -0.0302
31 | AGCGTGAC | -0.0445
32 | CAGGAACC | -0.147
33 | CTCTTCCC | -0.172
34 | CACGTCAA | -0.162
35 | ATATCCAT | 0.0888
36 | AATTGGTC | 0.167
37 | AGATCTAT | 0.0428
38 | ACGCCATG | -0.216
39 | AAGCTTGG | -0.115
40 | CGCTGGTA | -0.107
41 | AACCACCT | 0.0267
42 | AGGAGGAA | 0.00792
43 | ACCCAAGT | -0.09
44 | AACTAGTC | -0.137
45 | ATACTGGG | -0.113
46 | AACGATCG | 0.139
47 | AGGTCTTG | -0.00739
48 | AAGGGGGA | -0.302
49 | ATTGTATA | 0.276
50 | CGGAGGAA | 0.175

Row | Sequence | PBM E-score
51 | TGGCAACA | -0.101
52 | CAACAGGC | -0.0861
53 | AATCCAGT | 0.0724
54 | TATTTCAA | 0.28
55 | CCTTAGGA | -0.032
56 | AGGGCCCC | -0.342
57 | CGCCCAGA | -0.215
58 | TGAGCGCA | -0.177
59 | ACCGTTTG | -0.0266
60 | AGGGGTCC | -0.23
61 | CCTGGCGA | -0.153
62 | AAAGTTGC | -0.0435
63 | TACCGTCA | 0.0101
64 | TAGCTCAA | 0.0549
65 | CCCAGCCC | -0.325
66 | CCGCTAAA | 0.00122
67 | AAGTATCG | 0.0788
68 | GGATCCAA | 0.104
69 | GGAACGTA | -0.137
70 | CGCGGAAG | 0.138
71 | GCATTGCC | -0.0318
72 | AATAACTC | 0.0529
73 | ACCGGTGC | 0.144
74 | AATAGTTC | 0.218
75 | AAGGCGGT | -0.0822

Row | Sequence | PBM E-score
76 | AGGCTAGG | -0.359
77 | TTGCACAA | 0.0923
78 | CGATCATC | -0.0604
79 | AGCATGTG | -0.113
80 | TACGCGAA | -0.0357
81 | CATGATGA | 0.0345
82 | TCACGCCA | 0.0416
83 | GTCCAAGA | -0.172
84 | AATAATAA | 0.285
85 | AAGTACCA | 0.134
86 | AGACTCCA | -0.253
87 | TATAGGCA | -0.134
88 | TAGTTGAA | 0.103
89 | AATTAAAT | 0.118
90 | CAGCCGAG | 0.275
91 | CCATTTCC | 0.13
92 | GCGTTTTA | 0.146
93 | CACGATAC | -0.122
94 | CATTGGGC | -0.261
95 | ATCCTTCA | 0.022
96 | GACTTCAC | -0.0636
97 | GCGAGCGC | 0.0998
98 | GCACTCAC | -0.144
99 | GGCTTAAA | 0.164
100 | CTCTCAAA | 0.089

Another view of part of the listing above:
Row	Sequence	PBM E-score
78	CGATCATC	-0.0604
85	AAGTACCA	0.134
86	AGACTCCA	-0.253
88	TAGTTGAA	0.103
89	AATTAAAT	0.118
96	GACTTCAC	-0.0636
98	GCACTCAC	-0.144

A portion from further up:
Row | Sequence | PBM E-score
85 | AAGTACCA | 0.134
86 | AGACTCCA | -0.253
87 | TATAGGCA | -0.134
88 | TAGTTGAA | 0.103

Continued:

Row | Sequence | PBM E-score
101 | TGAAGCCA | -0.0301
102 | AAGCTGGT | -0.00269
103 | CCACGTTC | -0.182
104 | ATAACAGC | 0.0641
105 | ATTGCTTG | -0.0848
106 | GGTAAGGA | -0.0168
107 | CGTCCACC | -0.368
108 | AAAACAAT | 0.152
109 | GTGCCAAC | -0.0189
110 | TAAACTTA | 0.0139
111 | CTGTTTCA | 0.00764
112 | ATGGGAGA | -0.261
113 | GGAGAACC | 0.0393
114 | AGGCGCGG | -0.071
115 | AAAATCGT | 0.0631
116 | CAGAGCGC | -0.29
117 | AGATCCAT | -0.105
118 | CTGTCTCA | -0.117
119 | CAATATCC | 0.0849
120 | AGGGCCAC | -0.263
121 | AGTGCGGA | 0.254
122 | CCGGCTCC | 0.293
123 | GTTCGACA | 0.0616
124 | AGCTTTGG | -0.121
125 | AAACAGAT | 0.147

Row | Sequence | PBM E-score
126 | ACGTAATG | -0.0759
127 | AGGGTCCC | -0.233
128 | ATCCCTGA | -0.157
129 | GCGAAGCC | -0.188
130 | CCGAAAAG | 0.31
131 | AGTTGCCC | 0.071
132 | AGCCCACC | -0.228
133 | GGGAAAAA | 0.123
134 | ACATTGAT | 0.219
135 | CGAGGAGA | -0.213
136 | ACAGCGCG | -0.0632
137 | ATCTGTGC | -0.072
138 | AAGGCAAG | -0.25
139 | AGGAAGTC | -0.203
140 | AAGTCAGT | -0.0206
141 | GCCCGACC | -0.116
142 | AGTAATGA | 0.0496
143 | CGCGCCTC | 0.013
144 | AGTAGATA | 0.237
145 | ACACCAAA | 0.178
146 | GCTGGAAC | -0.0789
147 | GCACGTGC | 0.193
148 | CGGATTCC | 0.212
149 | AGGTAACC | -0.106
150 | CAGAGGTC | -0.25

Row | Sequence | PBM E-score
151 | GAGGGCGA | -0.28
152 | CTGATTCC | 0.0371
153 | AAGCACGA | 0.0242
154 | CACGCCAC | -0.22
155 | CGTCACGC | -0.051
156 | AAAACAAA | 0.259
157 | GCATTTAC | -0.00693
158 | AATAGTTG | 0.0156
159 | CCCGATCC | -0.106
160 | CCAAACGC | -0.14
161 | TGGGTAAA | -0.0372
162 | AATGGGAG | -0.182
163 | ACGTTGTG | 0.0349
164 | CGGCGACA | 0.221
165 | GAGAAATC | 0.128
166 | ACGTCTCC | -0.0377
167 | GACTCCGA | -0.0256
168 | GCCGACAA | 0.239
169 | ATCTTTGA | 0.107
170 | GTCTTGAA | 0.096
171 | AAGACTAG | -0.173
172 | CTTCAGCA | -0.137
173 | AAGCCCGT | -0.25
174 | TAAAAACA | 0.233
175 | GCACAGCC | 0.00143

Row | Sequence | PBM E-score
176 | ACCCGATG | 0.0436
177 | CTAGGGTA | -0.203
178 | ACCTCGAC | 0.119
179 | GTTCCAAA | 0.158
180 | AATAGCAG | -0.148
181 | AATCGGTG | -0.0533
182 | ATTCTATC | 0.0658
183 | AGGACACC | 0.0367
184 | GATCATGC | -0.104
185 | AGGTGGGA | -0.316
186 | AATAAACA | 0.123
187 | GGCATATA | 0.2
188 | ACCGCTGA | 0.0368
189 | AAAGTGGG | -0.101
190 | AATTATAT | 0.234
191 | AGAACAAA | 0.349
192 | CGCGCGAG | 0.0573
193 | CAGCTAGC | -0.152
194 | TTTAGAAA | 0.18
195 | CGATCTCC | 0.0574
196 | CGGTTTAC | 0.116
197 | AGTCCTGA | -0.0683
198 | GCTCTATA | -0.0239
199 | AATGGACT | -0.174
200 | CTGACTGA | -0.216

Row | Sequence | PBM E-score
201 | CGGAACCG | 0.364
202 | CGTAACCA | -0.0639
203 | CCTTCCCC | -0.171
204 | ACACCAGA | 0.0624
205 | CCAAGGGC | -0.205
206 | AAACGTTA | 0.134
207 | CACGAGAG | -0.0761
208 | AATGGGAT | -0.142
209 | GACCTGAA | 0.0833
210 | CTAATCTC | 0.063
211 | TCAGCTAA | -0.0281
212 | CGCATGTC | -0.211
213 | GATACATA | 0.153
214 | CTGAGGCA | -0.107
215 | AACGATAT | 0.241
216 | CGTAAAAG | 0.154
217 | CGATGCGC | -0.0469
218 | CAACTCAA | 0.179
219 | AAAATCCG | 0.259

Given as comma-separated lines: part of the list above
Row,Sequence,PBM E-score
125,AAACAGAT,0.147
126,ACGTAATG,-0.0759
127,AGGGTCCC,-0.233
